From US9796659B2, “Derivatives of polyhydroxy compounds” (RATIOPHARM GMBH, priority 2014, dated 2017) come the findings set out here.

The subject of one data set is Caco-2 monolayers. Briefly: in vitro. Particulars: human, Caco-2, 90 min. On the procedure: (§1) The membrane permeability was investigated in Caco-2 monolayers. DMF was investigated in a separate experiment for comparison.
(§2) […] The test concentration in the apical medium was 250 μM. […] Furthermore, a significant metabolism or degradation of the test compound was expected and therefore the parent compound as well as MMF was determined in the acceptor compartment (basolateral medium). Sampling time points were 15, 45 and 90 min.

The next data set in a line: in vitro. Particulars: human, Caco-2, Papp × 10^−6 [cm/sec] mean ± s.d. On the procedure:
as §1, §2

As for `CC(C)NCC(O)COc1ccc(CC(N)=O)cc1` (stereo not drawn) [Atenolol, atenolol], the “Papp × 10^−6 [cm/sec] mean ± s.d.” value with Caco-2 monolayers was 0.8 ± 0.2 10^−6 cm/sec. Besides, in “in vitro”, the Papp A→B at 90 min, 250 μM turned out to be 0.3 ± 0.1 ×10⁻⁶ cm/s and the Papp B→A at 90 min is 1 ± 0.1 ×10⁻⁶ cm/s.

As usually defined, the Papp A→B is the apparent permeability from the apical to the basolateral side of a cell layer. High values mean ready permeation, low ones poor permeation. In general, Papp B→A refers to how fast a substance crosses the layer from the basolateral side.
